# Data: paper PMC10959415
# Sequences of proteins named here, by UniProt entry; tags and fusion partners are left off.
# UniProt P19091: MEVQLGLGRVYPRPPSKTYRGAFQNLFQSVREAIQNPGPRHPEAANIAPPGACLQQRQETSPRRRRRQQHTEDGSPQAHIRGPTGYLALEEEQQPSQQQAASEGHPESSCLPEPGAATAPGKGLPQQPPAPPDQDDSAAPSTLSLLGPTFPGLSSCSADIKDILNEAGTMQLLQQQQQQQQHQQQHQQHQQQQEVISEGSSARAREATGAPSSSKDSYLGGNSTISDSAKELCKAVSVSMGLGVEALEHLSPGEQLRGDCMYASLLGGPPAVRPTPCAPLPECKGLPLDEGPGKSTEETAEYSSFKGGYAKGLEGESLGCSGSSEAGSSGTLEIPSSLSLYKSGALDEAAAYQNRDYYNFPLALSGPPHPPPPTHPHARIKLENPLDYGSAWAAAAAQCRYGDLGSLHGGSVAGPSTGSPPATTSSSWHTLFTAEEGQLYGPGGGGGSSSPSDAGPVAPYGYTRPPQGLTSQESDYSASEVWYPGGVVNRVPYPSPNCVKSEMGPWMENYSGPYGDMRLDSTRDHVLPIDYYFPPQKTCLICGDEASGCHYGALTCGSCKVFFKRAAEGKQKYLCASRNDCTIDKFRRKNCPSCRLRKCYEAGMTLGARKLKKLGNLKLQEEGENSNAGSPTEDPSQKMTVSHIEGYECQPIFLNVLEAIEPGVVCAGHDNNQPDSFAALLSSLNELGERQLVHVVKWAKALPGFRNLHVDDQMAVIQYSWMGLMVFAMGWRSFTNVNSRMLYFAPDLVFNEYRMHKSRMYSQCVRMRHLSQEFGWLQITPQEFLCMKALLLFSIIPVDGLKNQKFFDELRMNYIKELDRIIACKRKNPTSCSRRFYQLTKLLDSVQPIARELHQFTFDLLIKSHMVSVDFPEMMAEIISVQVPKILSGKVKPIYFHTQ
# UniProt O70133: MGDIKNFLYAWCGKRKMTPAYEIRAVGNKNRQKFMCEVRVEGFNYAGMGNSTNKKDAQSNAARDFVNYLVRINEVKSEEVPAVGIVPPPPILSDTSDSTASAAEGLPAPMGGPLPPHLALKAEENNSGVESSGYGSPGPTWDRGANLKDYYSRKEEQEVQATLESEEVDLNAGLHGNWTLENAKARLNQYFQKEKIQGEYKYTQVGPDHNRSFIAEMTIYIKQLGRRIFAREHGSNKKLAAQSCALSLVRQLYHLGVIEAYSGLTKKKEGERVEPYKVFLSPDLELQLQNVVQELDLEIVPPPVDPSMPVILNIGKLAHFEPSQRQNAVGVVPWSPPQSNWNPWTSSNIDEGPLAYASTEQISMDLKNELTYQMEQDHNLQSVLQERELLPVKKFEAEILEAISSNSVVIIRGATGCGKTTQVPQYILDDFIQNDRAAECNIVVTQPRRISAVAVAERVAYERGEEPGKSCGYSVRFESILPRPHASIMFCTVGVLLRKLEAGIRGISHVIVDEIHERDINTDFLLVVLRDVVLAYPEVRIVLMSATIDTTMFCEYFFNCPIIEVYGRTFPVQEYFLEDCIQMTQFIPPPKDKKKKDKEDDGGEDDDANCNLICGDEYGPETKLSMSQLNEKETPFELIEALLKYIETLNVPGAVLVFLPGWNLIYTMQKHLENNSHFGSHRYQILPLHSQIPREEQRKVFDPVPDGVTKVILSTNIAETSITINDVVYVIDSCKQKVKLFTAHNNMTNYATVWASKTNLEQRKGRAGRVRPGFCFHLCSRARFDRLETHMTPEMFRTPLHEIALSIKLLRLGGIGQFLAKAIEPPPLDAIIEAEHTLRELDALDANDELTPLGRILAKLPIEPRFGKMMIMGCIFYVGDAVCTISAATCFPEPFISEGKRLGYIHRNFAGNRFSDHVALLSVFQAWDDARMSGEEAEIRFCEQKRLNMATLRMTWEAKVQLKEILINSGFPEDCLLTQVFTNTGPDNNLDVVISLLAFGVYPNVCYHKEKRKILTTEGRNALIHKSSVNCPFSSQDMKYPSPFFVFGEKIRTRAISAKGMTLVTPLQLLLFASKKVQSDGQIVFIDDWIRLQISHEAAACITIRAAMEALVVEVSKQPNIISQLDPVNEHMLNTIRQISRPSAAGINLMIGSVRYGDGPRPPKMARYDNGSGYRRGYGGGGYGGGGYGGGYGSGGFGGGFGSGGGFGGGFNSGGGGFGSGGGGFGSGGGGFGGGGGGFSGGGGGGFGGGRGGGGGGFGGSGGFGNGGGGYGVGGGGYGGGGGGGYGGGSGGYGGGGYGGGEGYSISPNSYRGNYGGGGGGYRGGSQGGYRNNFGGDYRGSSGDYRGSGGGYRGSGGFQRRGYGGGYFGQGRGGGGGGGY
# UniProt Q08369: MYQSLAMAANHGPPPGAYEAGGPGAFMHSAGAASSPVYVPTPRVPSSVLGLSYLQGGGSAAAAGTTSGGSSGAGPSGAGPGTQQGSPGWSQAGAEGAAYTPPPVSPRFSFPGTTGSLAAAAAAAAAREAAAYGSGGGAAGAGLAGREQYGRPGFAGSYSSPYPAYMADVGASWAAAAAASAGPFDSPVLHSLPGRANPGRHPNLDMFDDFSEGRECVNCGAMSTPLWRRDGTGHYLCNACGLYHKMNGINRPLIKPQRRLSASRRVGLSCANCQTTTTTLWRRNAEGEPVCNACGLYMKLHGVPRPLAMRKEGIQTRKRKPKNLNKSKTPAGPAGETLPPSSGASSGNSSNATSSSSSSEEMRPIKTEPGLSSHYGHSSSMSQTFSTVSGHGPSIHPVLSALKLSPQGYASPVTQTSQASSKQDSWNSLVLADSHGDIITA
# UniProt O09106: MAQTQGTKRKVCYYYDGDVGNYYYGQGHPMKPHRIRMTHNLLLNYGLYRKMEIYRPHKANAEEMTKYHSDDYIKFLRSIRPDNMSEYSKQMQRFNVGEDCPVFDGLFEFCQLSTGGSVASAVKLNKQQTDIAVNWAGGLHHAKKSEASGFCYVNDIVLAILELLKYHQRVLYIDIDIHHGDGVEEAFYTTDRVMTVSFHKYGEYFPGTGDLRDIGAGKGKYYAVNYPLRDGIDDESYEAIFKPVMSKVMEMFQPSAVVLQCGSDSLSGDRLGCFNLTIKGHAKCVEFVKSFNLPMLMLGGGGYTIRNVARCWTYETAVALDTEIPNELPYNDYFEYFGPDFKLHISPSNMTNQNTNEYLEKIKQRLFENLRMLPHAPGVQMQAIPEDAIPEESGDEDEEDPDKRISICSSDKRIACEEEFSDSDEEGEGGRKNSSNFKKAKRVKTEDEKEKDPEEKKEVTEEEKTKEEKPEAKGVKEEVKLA
# UniProt Q99JR8: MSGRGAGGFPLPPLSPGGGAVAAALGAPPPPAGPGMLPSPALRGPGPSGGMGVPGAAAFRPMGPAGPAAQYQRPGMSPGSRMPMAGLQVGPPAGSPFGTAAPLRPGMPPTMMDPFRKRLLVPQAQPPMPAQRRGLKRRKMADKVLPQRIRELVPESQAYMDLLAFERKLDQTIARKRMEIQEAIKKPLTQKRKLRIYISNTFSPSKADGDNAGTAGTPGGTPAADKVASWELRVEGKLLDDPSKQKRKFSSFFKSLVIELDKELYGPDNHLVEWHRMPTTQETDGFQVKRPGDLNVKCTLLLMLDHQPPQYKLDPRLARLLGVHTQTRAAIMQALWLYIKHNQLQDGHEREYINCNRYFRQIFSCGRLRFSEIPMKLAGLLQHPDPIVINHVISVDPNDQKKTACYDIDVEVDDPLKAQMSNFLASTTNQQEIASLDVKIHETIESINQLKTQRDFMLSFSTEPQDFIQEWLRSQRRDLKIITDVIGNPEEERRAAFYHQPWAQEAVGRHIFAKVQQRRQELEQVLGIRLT
# UniProt P45448: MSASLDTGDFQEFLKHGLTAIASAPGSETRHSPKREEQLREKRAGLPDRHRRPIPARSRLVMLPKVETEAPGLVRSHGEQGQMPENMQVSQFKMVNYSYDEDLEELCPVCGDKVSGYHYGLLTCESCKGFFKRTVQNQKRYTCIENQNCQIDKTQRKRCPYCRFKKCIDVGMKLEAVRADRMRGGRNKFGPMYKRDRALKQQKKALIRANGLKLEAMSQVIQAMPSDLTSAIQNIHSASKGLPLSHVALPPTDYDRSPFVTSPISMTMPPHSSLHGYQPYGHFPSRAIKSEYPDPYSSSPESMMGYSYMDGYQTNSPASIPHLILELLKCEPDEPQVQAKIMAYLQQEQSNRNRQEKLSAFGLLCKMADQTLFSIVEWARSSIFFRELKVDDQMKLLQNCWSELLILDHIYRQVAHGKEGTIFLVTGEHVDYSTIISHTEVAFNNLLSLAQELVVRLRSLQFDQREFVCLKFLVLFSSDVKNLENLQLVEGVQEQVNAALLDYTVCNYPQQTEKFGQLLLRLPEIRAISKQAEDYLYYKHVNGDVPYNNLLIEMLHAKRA
# UniProt P23198: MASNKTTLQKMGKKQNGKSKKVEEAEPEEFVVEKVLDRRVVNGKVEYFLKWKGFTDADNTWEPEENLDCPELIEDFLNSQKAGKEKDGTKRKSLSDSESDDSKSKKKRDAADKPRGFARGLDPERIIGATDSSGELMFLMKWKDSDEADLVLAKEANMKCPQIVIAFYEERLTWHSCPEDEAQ
# UniProt Q9WV02: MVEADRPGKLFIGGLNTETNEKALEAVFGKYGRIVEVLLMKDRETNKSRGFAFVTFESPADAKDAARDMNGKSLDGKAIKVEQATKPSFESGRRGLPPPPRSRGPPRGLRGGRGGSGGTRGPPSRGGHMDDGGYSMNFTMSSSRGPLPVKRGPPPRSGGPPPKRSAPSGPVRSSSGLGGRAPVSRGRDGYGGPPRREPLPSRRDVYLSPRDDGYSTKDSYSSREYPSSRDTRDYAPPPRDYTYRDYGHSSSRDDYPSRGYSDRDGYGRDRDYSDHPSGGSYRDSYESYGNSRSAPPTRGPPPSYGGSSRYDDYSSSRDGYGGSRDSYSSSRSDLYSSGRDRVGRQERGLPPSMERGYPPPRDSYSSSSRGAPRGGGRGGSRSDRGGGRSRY
# UniProt Q6PDM2: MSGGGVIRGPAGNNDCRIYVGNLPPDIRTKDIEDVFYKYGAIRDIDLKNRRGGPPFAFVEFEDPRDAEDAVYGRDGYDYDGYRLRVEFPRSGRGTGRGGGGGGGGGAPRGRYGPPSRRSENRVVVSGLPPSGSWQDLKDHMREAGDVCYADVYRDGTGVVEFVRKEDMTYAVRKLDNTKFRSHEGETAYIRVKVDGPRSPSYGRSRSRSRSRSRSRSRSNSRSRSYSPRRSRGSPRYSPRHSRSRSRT
# UniProt P22561: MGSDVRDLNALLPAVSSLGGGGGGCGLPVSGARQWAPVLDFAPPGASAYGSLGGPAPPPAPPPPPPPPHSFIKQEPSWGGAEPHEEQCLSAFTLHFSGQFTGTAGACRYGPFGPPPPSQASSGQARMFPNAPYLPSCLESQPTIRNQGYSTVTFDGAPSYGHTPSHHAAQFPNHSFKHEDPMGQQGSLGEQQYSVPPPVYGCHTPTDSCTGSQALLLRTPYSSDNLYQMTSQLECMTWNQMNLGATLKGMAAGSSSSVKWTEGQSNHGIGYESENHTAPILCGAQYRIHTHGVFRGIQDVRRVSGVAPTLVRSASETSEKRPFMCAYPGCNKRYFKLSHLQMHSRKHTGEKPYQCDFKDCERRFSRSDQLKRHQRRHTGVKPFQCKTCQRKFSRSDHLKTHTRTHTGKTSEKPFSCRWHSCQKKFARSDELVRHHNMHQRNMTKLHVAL
# UniProt Q8BK63: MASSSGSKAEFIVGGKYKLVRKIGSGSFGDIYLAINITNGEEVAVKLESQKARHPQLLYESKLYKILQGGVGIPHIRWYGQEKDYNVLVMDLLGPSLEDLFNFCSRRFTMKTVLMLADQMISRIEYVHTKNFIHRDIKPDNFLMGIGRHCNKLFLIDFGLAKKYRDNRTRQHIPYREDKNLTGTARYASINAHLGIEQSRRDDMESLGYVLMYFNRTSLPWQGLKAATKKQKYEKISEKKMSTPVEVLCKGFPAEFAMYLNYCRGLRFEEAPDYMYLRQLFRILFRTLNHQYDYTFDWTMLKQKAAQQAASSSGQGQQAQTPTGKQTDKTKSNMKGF
# UniProt P23475: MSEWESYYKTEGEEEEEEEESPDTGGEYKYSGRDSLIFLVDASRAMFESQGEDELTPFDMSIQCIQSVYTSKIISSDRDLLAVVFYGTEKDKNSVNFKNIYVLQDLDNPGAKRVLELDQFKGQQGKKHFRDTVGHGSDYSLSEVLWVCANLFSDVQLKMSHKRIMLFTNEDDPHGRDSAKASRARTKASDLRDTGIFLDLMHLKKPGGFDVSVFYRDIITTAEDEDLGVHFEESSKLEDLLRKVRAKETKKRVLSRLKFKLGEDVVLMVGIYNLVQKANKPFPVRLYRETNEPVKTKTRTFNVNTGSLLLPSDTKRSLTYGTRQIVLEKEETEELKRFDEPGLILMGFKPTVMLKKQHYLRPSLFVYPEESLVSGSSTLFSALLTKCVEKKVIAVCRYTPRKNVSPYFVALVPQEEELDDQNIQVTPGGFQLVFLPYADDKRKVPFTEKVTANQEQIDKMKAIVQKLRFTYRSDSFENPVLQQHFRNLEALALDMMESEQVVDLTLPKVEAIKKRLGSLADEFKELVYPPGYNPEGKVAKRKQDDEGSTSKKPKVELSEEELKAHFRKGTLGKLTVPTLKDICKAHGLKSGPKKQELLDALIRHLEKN
# These are yes or no findings as the source states them, for the method shown. Binding seen in cells or lysates may run through a third protein. Here binding means that the protein was enriched with, or labelled near, the bait; the list need not be complete. For some assays here: Sequences can lack the tags named with a protein.
# T1: forkhead box L2 (FOXL2) (mouse (endogenous in mouse ovary)) (UniProt O88470)
# T1 sequence: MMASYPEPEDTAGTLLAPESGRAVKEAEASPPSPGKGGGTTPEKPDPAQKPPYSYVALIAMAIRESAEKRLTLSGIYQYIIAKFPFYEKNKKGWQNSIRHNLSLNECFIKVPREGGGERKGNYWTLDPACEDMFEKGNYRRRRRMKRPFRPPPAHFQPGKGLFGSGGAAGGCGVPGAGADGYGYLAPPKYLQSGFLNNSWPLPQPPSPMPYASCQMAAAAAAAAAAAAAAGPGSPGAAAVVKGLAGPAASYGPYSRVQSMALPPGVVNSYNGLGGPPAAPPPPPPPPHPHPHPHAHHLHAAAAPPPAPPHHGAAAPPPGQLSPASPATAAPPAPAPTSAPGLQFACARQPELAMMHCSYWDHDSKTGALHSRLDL
# Target: T1, forkhead box L2 (FOXL2) (mouse (endogenous in mouse ovary))
# Assay: affinity purification with mass spectrometry; ChIP-SICAP: formaldehyde-fixed (1.5%, 15 min), sonicated chromatin of whole mouse ovaries at E14.5, 1W and 8W; overnight immunoprecipitation at 4°C with a FOXL2 antibody, protein G Dynabeads, DNA biotinylated and captured on streptavidin beads, bound proteins digested and identified by mass spectrometry; enrichment over a no-antibody control, n = 2; detects proteins colocalizing with FOXL2 on the same chromatin fragments
row,Molecule,binding
1,"ATF1 (protein, UniProt P81269 1-269) MEDSHKSNTTETASQPGSTVAGPHVSQIVHQVSSLSESEESQDSSDSIGSSQKAHGILARRPSYRKILKDLSSEDTRGRKGEGENPSISAITSMSVPAPIYQTSSGQYIAIAPNGALQLASPSTDGVQALQTLTMTNSSSTQQGTILQYAQTSDGQQILVPSNQVVVQTASGDMQTYQIRTTPSATSLPQTVVMTSPVTLASQTTKTDDPQLRREIRLMKNREAARECRRKKKEYVKCLENRVAVLENQNKTLIEELKTLKDLYSHKSV",binds
2,"SRRT (protein, UniProt Q99MR6 1-875) MGDSDDEYDRRRRDKFRRERSDYDRSRERDERRRGDDWNDREWDRGRERRSRGEYRDYDRNRRERFSPPRHELSPPQKRMRRDWDEHSSDPYHSGYDMPYAGGGGGPTYGPPQPWGHPDVHIMQHHVLPIQARLGSIAEIDLGVPPPIMKSFKEFLLSLDDSVDETEAVKRYNDYKLDFRRQQMQDFFLAHKDEEWFRSKYHPDEVGKRRQEARGALQNRLKVFLSLMESGWFDNLLLDIDKADAIVKMLDAAVIKMEGGTENDLRILEQEEEEEQAGKTGEASKKEEARAGPALGEGERKANDKDEKKEDGKQAENDSSNDDKTKKSEGDGDKEEKKEEAEKEAKKSKKRNRKQSGDDSFDEGSVSESESESEGGQAEEEKEEAEEALKEKEKPKEEEKEKPKDAAGLECKPRPLHKTCSLFMRNIAPNISRAEIISLCKRYPGFMRVALSEPQPERRFFRRGWVTFDRSVNIKEICWNLQNIRLRECELSPGVNRDLTRRVRNINGITQHKQIVRNDIKLAAKLIHTLDDRTQLWASEPGTPPVPTSLPSQNPILKNITDYLIEEVSAEEEELLGSSGGPPPEEPPKEGNPAEINVERDEKLIKVLDKLLLYLRIVHSLDYYNTCEYPNEDEMPNRCGIIHVRGPMPPNRISHGEVLEWQKTFEEKLTPLLSVRESLSEEEAQKMGRKDPEQEVEKFVTSNTQELGKDKWLCPLSGKKFKGPEFVRKHIFNKHAEKIEEVKKEVAFFNNFLTDAKRPALPEIKPAQPPGPAQILPPGLTPGLPYPHQTPQGLMPYGQPRPPILGYGAGAVRPAVPTGGPPYPHAPYGAGRGNYDAFRGQGGYPGKPRNRMVRGDPRAIVEYRDLDAPDDVDFF",binds

# More lines, now with the values ahead:
row,binding,Molecule
1,binds,"WTAP1, a Wilms’ tumor 1–associating protein (protein, UniProt Q9ER69 1-396) MTNEEPLPKKVRLSETDFKVMARDELILRWKQYEAYVQALEGKYTDLNSNDVTGLRESEEKLKQQQQESARRENILVMRLATKEQEMQECTTQIQYLKQVQQPSVAQLRSTMVDPAINLFFLKMKGELEQTKDKLEQAQNELSAWKFTPDSQTGKKLMAKCRMLIQENQELGRQLSQGRIAQLEAELALQKKYSEELKSSQDELNDFIIQLDEEVEGMQSTILVLQQQLKETRQQLAQYQQQQSQASAPSTSRTTSSEPVDQAEVTSKDCSRLANGPSNGSSSRQRTSGSGFHREGSTPEDDFPSSSGNGNKASNSSEERTGRGGSSYINPLSAGYESVDSPTGSENSLTHHSNDTDSSHDPQEEKAVSGKGNRTVGSRHVQNGLDSSVNVQGAVL"
2,binds,"histone deacetylase 6 (HDAC6) (protein, UniProt Q9Z2V5 1-1149) MTSTGQDSSTRQRKSRHNPQSPLQESSATLKRGGKKCAVPHSSPNLAEVKKKGKMKKLSQPAEEDLVVGLQGLDLNPETRVPVGTGLVFDEQLNDFHCLWDDSFPESPERLHAIREQLILEGLLGRCVSFQARFAEKEELMLVHSLEYIDLMETTQYMNEGELRVLAETYDSVYLHPNSYSCACLATGSVLRLVDALMGAEIRNGMAVIRPPGHHAQHNLMDGYCMFNHLAVAARYAQKKHRIQRVLIVDWDVHHGQGTQFIFDQDPSVLYFSIHRYEHGRFWPHLKASNWSTIGFGQGQGYTINVPWNQTGMRDADYIAAFLHILLPVASEFQPQLVLVAAGFDALHGDPKGEMAATPAGFAHLTHLLMGLAGGKLILSLEGGYNLRALAKGVSASLHTLLGDPCPMLESCVVPCASAQTSIYCTLEALEPFWEVLERSVETQEEDEVEEAVLEEEEEEGGWEATALPMDTWPLLQNRTGLVYDEKMMSHCNLWDNHHPETPQRILRIMCHLEEVGLAARCLILPARPALDSELLTCHSAEYVEHLRTTEKMKTRDLHREGANFDSIYICPSTFACAKLATGAACRLVEAVLSGEVLNGIAVVRPPGHHAEPNAACGFCFFNSVAVAARHAQIIAGRALRILIVDWDVHHGNGTQHIFEDDPSVLYVSLHRYDRGTFFPMGDEGASSQVGRDAGIGFTVNVPWNGPRMGDADYLAAWHRLVLPIAYEFNPELVLISAGFDAAQGDPLGGCQVTPEGYAHLTHLLMGLAGGRIILILEGGYNLASISESMAACTHSLLGDPPPQLTLLRPPQSGALVSISEVIQVHRKYWRSLRLMKMEDKEECSSSRLVIKKLPPTASPVSAKEMTTPKGKVPEESVRKTIAALPGKESTLGQAKSKMAKAVLAQGQSSEQAAKGTTLDLATSKETVGGATTDLWASAAAPENFPNQTTSVEALGETEPTPPASHTNKQTTGASPLQGVTAQQSLQLGVLSTLELSREAEEAHDSEEGLLGEAAGGQDMNSLMLTQGFGDFNTQDVFYAVTPLSWCPHLMAVCPIPAAGLDVSQPCKTCGTVQENWVCLTCYQVYCSRYVNAHMVCHHEASEHPLVLSCVDLSTWCYVCQAYVHHEDLQDVKNAAHQNKFGEDMPHSH"
3,binds,"TCF21 (protein, UniProt O35437 1-179) MSTGSLSDVEDLQEVEMLDCDSLKVDSNKEFGTSNESTEEGSNCENGSPQKGRGGLGKRRKAPTKKSPLSGVSQEGKQVQRNAANARERARMRVLSKAFSRLKTTLPWVPPDTKLSKLDTLRLASSYIAHLRQILANDKYENGYIHPVNLTWPFMVAGKPENDLKEVVTANRLCGTTAS"
4,binds,"CXXC5 (protein, UniProt Q91WA4 1-317) MSSLGGGSQDAGGSSSSSNTNSSSGSGQKAGGTDKSTAVAATTAPTSVADDAPPPERRNKSGIISEPLNKSLRRSRPLSHYSSFGSSGGGGSMMGVESADKAAAAAASLLANGHDLAAAMAVDKSNPTSKHKSGAVASLLSKAERATELAAEGQLTLQQFAQSTEMLKRVVQEHLPLMSEAGAGLPDMEAVAGAEALNGQSDFPYLGAFPINPGLFIMTPAGVFLAESALHMAGLAEYPMQGELASAISSGKKKRKRCGMCAPCRRRINCEQCSSCRNRKTGHQICKFRKCEELKKKPSAALEKVMLPSGAAFRWFQ"
5,binds,"SF3A1 (protein, UniProt Q8K4Z5 1-791) MQAGPVQAVPPPPPVATESKQPIEEEASSKEDPTPSKPVVGIIYPPPEVRNIVDKTASFVARNGPEFEARIRQNEINNPKFNFLNPNDPYHAYYRHKVSEFKEGKAQEPSAAIPKVMQQQQQATQQQLPQKVQAQVIQETIVPKEPPPEFEFIADPPSISAFDLDVVKLTAQFVARNGRQFLTQLMQKEQRNYQFDFLRPQHSLFNYFTKLVEQYTKILIPPKGLFSKLKKEAENPREVLDQVCYRVEWAKFQERERKKEEEEKEKERVAYAQIDWHDFVVVETVDFQPNEQGNFPPPTTPEELGARILIQERYEKFGESEEVEMEVESDEEDQEKAEETPSQLDQDTQVQDMDEGSDDEEEGQKVPPPPETPMPPPLPPTPDQVIVRKDYDPKASKPLPPAPAPDEYLVSPITGEKIPASKMQEHMRIGLLDPRWLEQRDRSIREKQSDDEVYAPGLDIESSLKQLAERRTDIFGVEETAIGKKIGEEEIQKPEEKVTWDGHSGSMARTQQAAQANITLQEQIEAIHKAKGLVPEDDTKEKIGPSKPNEIPQQPPPPSSATNIPSSAPPITSVPRPPAMPPPVRTTVVSAVPVMPRPPMASVVRLPPGSVIAPMPPIIHAPRINVVPMPPAAPPIMAPRPPPMIVPTAFVPAPPVAPVPAPAPMPPVHPPPPMEDEPPSKKLKTEDSLMPEEEFLRRNKGPVSIKVQVPNMQDKTEWKLNGQGLVFTLPLTDQVSVIKVKIHEATGMPAGKQKLQYEGIFIKDSNSLAYYNMASGAVIHLALKERGGRKK"

# Target: T1, forkhead box L2 (FOXL2) (mouse (endogenous in mouse ovary))
# Assay: as above
# Remark: another data set of the same source
row,Molecule,binding
1,Androgen receptor (AR) (from UniProt P19091 1-899),binds
2,CTNNB1 (β-catenin) (from UniProt Q02248 1-781),binds
3,DNA helicase DHX9 (from UniProt O70133 1-1380),binds
4,GATA4 (from UniProt Q08369 1-441),binds
5,HDAC1 (from UniProt O09106 1-482),binds
6,SWI/SNF-related matrix-associated actin-dependent regulator of chromatin subfamily D member 2 (SMARCD2) (from UniProt Q99JR8 1-531),binds
7,estrogen receptor 2 (ESR2) (from UniProt O08537 1-530),binds
8,nuclear receptor subfamily 5 group A member 2 (NR5A2) (from UniProt P45448 1-560),binds
9,signal transducer and activator of transcription 3 (STAT3) (from UniProt P42227 1-770),binds

# Other lines, results leading:
row,binding,Molecule
1,binds,CBX3 (from UniProt P23198 1-183)
2,binds,DDX17 (from UniProt Q501J6 1-650)
3,binds,RBMX (from UniProt Q9WV02 1-391)
4,binds,SRSF1 (from UniProt Q6PDM2 1-248)
5,binds,Wilms’ tumor suppressor (WT1) (from UniProt P22561 1-449)
6,binds,casein kinase I isoform alpha (CSNK1A1) (from UniProt Q8BK63 1-337)
7,binds,x-ray repair cross complementing 6 (XRCC6) (from UniProt P23475 1-608)
